Test results: article PMC11252818
These are yes or no findings as the source states them, for the method shown. In cells and extracts the contact can be indirect. Some results given as binding are weak or reduced against the parent protein; the word gives no strength.

By UniProt entry, the sequences of proteins in these tests, tags left out.
UniProt Q9UPY5: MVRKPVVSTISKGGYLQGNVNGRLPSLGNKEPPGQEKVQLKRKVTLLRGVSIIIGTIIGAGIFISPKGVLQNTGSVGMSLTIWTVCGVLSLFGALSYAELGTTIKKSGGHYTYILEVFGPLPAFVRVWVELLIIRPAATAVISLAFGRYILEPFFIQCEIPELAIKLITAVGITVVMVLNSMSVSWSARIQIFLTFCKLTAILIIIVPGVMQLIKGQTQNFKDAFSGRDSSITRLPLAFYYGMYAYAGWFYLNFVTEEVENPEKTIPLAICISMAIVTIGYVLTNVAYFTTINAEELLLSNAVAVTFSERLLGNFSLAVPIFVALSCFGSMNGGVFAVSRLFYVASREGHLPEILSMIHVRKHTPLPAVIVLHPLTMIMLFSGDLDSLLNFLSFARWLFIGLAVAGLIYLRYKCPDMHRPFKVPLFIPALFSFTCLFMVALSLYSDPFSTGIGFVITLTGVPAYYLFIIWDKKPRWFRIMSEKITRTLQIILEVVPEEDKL

Molecular target: FLAG-SLC7A11 (UniProt Q9UPY5)
Test: co-IP; HEK293 cells transfected with FLAG-SLC7A11, IP-IB of endogenous receptor proteins (Fig. 2A)

binding	Binder
no binding	endogenous KLHL13 (protein, UniProt Q9P2N7 1-655) MPLKWKTSSPAIWKFPVPVLKTSRSTPLSPAYISLVEEEDQHMKLSLGGSEMGLSSHLQSSKAGPTRIFTSNTHSSVVLQGFDQLRLEGLLCDVTLMPGDTDDAFPVHRVMMASASDYFKAMFTGGMKEQDLMCIKLHGVSKVGLRKIIDFIYTAKLSLNMDNLQDTLEAASFLQILPVLDFCKVFLISGVTLDNCVEVGRIANTYNLTEVDKYVNSFVLKNFPALLSTGEFLKLPFERLAFVLSSNSLKHCTELELFKATCRWLRLEEPRMDFAAKLMKNIRFPLMTPQELINYVQTVDFMRTDNTCVNLLLEASNYQMMPYMQPVMQSDRTAIRSDTTHLVTLGGVLRQQLVVSKELRMYDEKAHEWKSLAPMDAPRYQHGIAVIGNFLYVVGGQSNYDTKGKTAVDTVFRFDPRYNKWMQVASLNEKRTFFHLSALKGYLYAVGGRNAAGELPTVECYNPRTNEWTYVAKMSEPHYGHAGTVYGGVMYISGGITHDTFQKELMCFDPDTDKWIQKAPMTTVRGLHCMCTVGERLYVIGGNHFRGTSDYDDVLSCEYYSPILDQWTPIAAMLRGQSDVGVAVFENKIYVVGGYSWNNRCMVEIVQKYDPDKDEWHKVFDLPESLGGIRACTLTVFPPEETTPSPSRESPLSAP
binds	endogenous KCTD10 (protein, UniProt Q9H3F6 1-313) MEEMSGESVVSSAVPAAATRTTSFKGTSPSSKYVKLNVGGALYYTTMQTLTKQDTMLKAMFSGRMEVLTDSEGWILIDRCGKHFGTILNYLRDGAVPLPESRREIEELLAEAKYYLVQGLVEECQAALQNKDTYEPFCKVPVITSSKEEQKLIATSNKPAVKLLYNRSNNKYSYTSNSDDNMLKNIELFDKLSLRFNGRVLFIKDVIGDEICCWSFYGQGRKIAEVCCTSIVYATEKKQTKVEFPEARIYEETLNILLYEAQDGRGPDNALLEATGGAAGRSHHLDEDEERERIERVRRIHIKRPDDRAHLHQ
